# HELM strings list residues between dots; [ac] is acetyl, [am] amide, other brackets name non-standard units.
# Assay: general procedure: Fmoc solid-phase peptide synthesis; 2-chlorotrityl chloride resin; HATU/DIPEA; PyBOP/DIPEA for DOTA-tris(tBu) ester
# Details: whole synthesis
substance,measurement,value
PEPTIDE1{[DOTA].[Ahx].V.S.G.W.R.L.F.K.K.I.S}$$$$V2.0,isolated yield,16.8%
